# PubChem BioAssay AID1671190 (National Center for Advancing Translational Sciences (NCATS), 2021)
# By UniProt entry, the sequences of proteins in these tests, tags left out. Where a name states a change or a piece, a line headed by the entry shows the natural chain unless it says otherwise.
# UniProt P18054: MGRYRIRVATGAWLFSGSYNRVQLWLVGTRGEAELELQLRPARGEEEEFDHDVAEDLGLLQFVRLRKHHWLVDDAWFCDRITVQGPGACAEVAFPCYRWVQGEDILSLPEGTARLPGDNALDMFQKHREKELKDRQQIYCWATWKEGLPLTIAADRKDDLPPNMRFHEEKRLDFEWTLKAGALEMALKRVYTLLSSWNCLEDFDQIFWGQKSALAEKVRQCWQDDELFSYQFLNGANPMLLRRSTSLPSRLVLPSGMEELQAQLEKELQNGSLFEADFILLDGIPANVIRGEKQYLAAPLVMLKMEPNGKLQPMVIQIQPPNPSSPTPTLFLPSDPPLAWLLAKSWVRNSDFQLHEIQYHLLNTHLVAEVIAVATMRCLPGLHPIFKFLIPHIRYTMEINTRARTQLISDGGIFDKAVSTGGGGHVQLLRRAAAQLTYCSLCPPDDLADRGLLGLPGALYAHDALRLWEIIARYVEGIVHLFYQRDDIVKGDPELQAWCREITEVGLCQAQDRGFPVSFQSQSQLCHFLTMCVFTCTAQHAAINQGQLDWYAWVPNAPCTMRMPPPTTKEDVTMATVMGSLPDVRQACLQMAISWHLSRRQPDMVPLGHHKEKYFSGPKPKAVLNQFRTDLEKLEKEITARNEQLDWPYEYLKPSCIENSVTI
# Several values for one entry are separate records, joined by “and”; a condition that tells them apart may be missing. Equal values may be shown once. Out of some 580,000 compounds screened, about 6,100 (1.1%) were called active. The shares of active, inactive and inconclusive entries below differ from those in the screen. Calls follow the shape of the dose curve; as a rule, active = well fitted inhibition curve with a large enough effect; inconclusive = small, poorly fitted or top-dose-only effect, or another doubt; inactive = no such curve, though single readings can be large or run the other way. Where the call is inconclusive, the potency comes from a doubtful curve fit.
# Target: Polyunsaturated fatty acid lipoxygenase ALOX12 (Homo sapiens) (UniProt P18054)
# Assay: Primary qHTS assay for inhibitors of human arachidonate 12S-lipoxygenase (ALOX12): Round 2
# Conditions: purified 12hLO, xylenol orange hydroperoxide absorbance; activity change, negative = inhibition: at 108 µM (top of the series)
# Source text: Assay Provider: Theodore R. Holman Ph.D. University of California, Santa Cruz, California Human lipoxygenase 12hLO is a member of the closely related lipoxygenase family of enzymes which catalyze the site-specific oxidation of arachidonic acid to various hormone precursor molecules and as such is a candidate for drug development in a variety of disease areas, such as cancer and inflammation. Inhibition of 12hLO activity was screened by utilizing arachidonic acid as a substrate. The extent of hydroperoxide product formation was measured by a secondary chromogenic reaction in which xylenol orange (XO, Sigma-Aldrich, cat. number 39,818-7) reacts with the ferric ions produced from the reaction between the hydroperoxide and ferrous ions. The Fe (III)-XO complex is characterized with red-shifted absorbance at 560 nm. A purified preparation of human 12hLO was supplied by Dr. Holman laboratory, University of California, Santa Cruz.
# PROTOCOL TABLE SEQUENCE No. (e.g., 1, 2, 3, etc.); […] (e.g., Cells, Incubation, Reagent, etc.); VALUE; DESCRIPTION 1; Enzyme; 3 uL; 150 nM 12hLO enzyme solution dispensed in 1536-well Greiner black, clear bottom plates. 2; Compound; 23 nL; compounds and controls were added. 3; Incubate; 15 min; room temperature. 4; Substrate; 1 uL; 40 uM arachidonic acid (final concentration). 5; Incubate; 30 min; room temperature. 6; Reagent; 4 uL; Fe-XO solution was added to each well. 7; Incubation; 30 min; room temperature 8; Detector; absorbance; Read 1 at 405 nm absorbance using ViewLux (Perkin-Elmer) CCD imager. 9; Detector; absorbance; Read 2 at 573 nm absorbance using ViewLux (Perkin-Elmer) CCD imager. NOTES (numbers refer to sequence above) 1; 150 nM 12hLO (final concentration) in buffer solution (25 mM Hepes, 0.01% Triton X-100, pH 7.0) was dispensed in columns 1, 2, 5-48. Column 1 is neutral (100% activity). Buffer only was dispensed in columns 3 and 4 as no enzyme negative controls. The plates were covered with metal lids with gas-exchange holes. 2; Compounds were pin transferred via a Kalypsys Pin Tool (Wako USA) in column 5-48. Control compound was transferred in column 2, titration of nordihydroguaiaretic acid (NDGA, Sigma-Aldrich, N5023) with top concentration of 20 mM in DMSO then 1:3 dilution in duplicate. Dilution factor of 23 nL into 4 uL final assay volume. 3; Covered assay plates were incubated for 15 min at room temperature. 4; Substrate was added to start the reaction; 40 uM arachidonic acid (Sigma-Aldrich, St. Louis, MO) was dispensed throughout the plate. 6; Chromogenic detection reagent solution (divalent iron/xylenol orange, Fe-XO) was added to each well: 200 uM xylenol orange, 300 uM ferrous ammonium sulfate prepared freshly in 50 mM sulfuric acid. 8, 9; Two absorbance readouts were obtained at 405 nm and at 573 nm using a ViewLux high-throughput CCD plate imager (Perkin-Elmer). The 573 to 405 (Read 2 / Read 1) absorbance ratio was used to compute reaction progress.
# % is scaled to controls: 0 for no effect and ±100 for the full control effect; potency is read from the fitted curve at half-maximal effect.
SMILES,Potency,"activity change, negative = inhibition"
Cc1[nH]nc2c1C(c1ccccc1)SCC(=O)N2 (stereo not drawn),"inconclusive: 35.5 µM [inhibitor, single point]",
CCCCC/C=C\C/C=C\C/C=C\C/C=C\CCCC(=O)NCCCC(=O)O,"inconclusive: 35.5 µM [inhibitor, single point]",
COc1ccc2ccccc2c1CNCCc1ccccc1,"inconclusive: 39.8 µM [inhibitor, partial curve, poor fit]",
Cc1nc(SCc2c(Cl)cccc2Cl)nc(OC(=O)N(C)C)c1C,"inconclusive: 100 µM [inhibitor, partial curve, poor fit]",
c1ccc2c(c1)sc1ccccc12,,inactive: -6.66% [at 22.9 µM]
CN(C)P(=NC(=S)c1cccn1C)(N(C)C)N(C)C,active: 39.8 µM,
CC(C)(C)CC(C)(C)c1ccc(O)cc1,"inconclusive: 32.9 µM [inhibitor, partial curve, poor fit]",
COC(=O)C1=C(c2cccc(C#N)c2)C[C@@H]2CC[C@H]1N2C(=O)NCc1ccco1,"inconclusive: 89.1 µM [inhibitor, single point]",
COC(=O)c1c(N)n(Cc2ccc(OC)cc2)c2nc3ccccc3nc12,"inconclusive: 35.5 µM [inhibitor, single point]",
CCCCn1c(=O)c(C(=O)NCc2ccco2)c(O)c2ccccc21,inactive,
COc1cc(OC)c(OC)cc1CNC(C)C(O)c1ccccc1 (stereo not drawn),"inconclusive: 44.7 µM [inhibitor, partial curve, poor fit]",
COC(=O)C1=C(c2ccc(C(C)=O)cc2)C[C@@H]2CC[C@H]1N2C(=O)N1CCC(C)CC1,inactive,
NCCCP(=O)(O)CCc1ccccc1,"inconclusive: 22.4 µM [inhibitor, partial curve, poor fit]",
Cc1cccc(N=Nc2ccc(N(C)C)cc2)c1,inactive,
CCCn1c(C)c(C(=O)c2cccc3ccccc23)c2ccccc21,inactive,
CNc1ccc2oc(C[C@@H]3OC4(CC[C@@H]3C)O[C@H]([C@@H](C)C(=O)c3ccc[nH]3)[C@H](C)C[C@H]4C)nc2c1C(=O)O (stereo partly drawn),inactive,
CSc1nnc(C2CCNCC2)n1C,"inconclusive: 31.6 µM [inhibitor, single point]",
O=C1N[C@@H](Cc2ccccc2)C(=O)N2[C@H]1C[C@H]1c3ccccc3N(OOSc3ccccc3)[C@H]12,"inconclusive: 50.1 µM [inhibitor, partial curve, poor fit]",
O=C(CCc1ccccc1)N1Cc2cc(-c3cccc(F)c3)ccc2-n2nncc2C1,"inconclusive: 112 µM [inhibitor, single point]",
CCOC(=O)[C@]12Cc3cc(Cl)ccc3[C@H]1N(C1CCCCC1)C(=O)c1cc(OC)ccc12,active: 44.7 µM,
C[C@H]1CC[C@@H]2[C@@H](C)[C@H]3C(C[C@H]4C5CC[C@H]6C[C@@H](O)CC[C@]6(C)C5CC[C@]34C)N2C1 (stereo partly drawn),inactive,

SMILES,Potency,"activity change, negative = inhibition"
CCN1C(=O)/C(=C/c2ccc3c(c2)CCN3CCCCl)C(=O)NC1=S,"inconclusive: 50.1 µM [inhibitor, partial curve]",
CCOc1cc2c(cc1OCC)-n1cccc1C(c1ccc(C(C)C)cc1)NC2 (stereo not drawn),"inconclusive: 50.1 µM [inhibitor, partial curve, poor fit]",
CN1C(=O)CCS(=O)(=O)C1c1ccc(Cl)cc1 (stereo not drawn),"inconclusive: 38.5 µM [inhibitor, single point]",
C=CCNC(=O)c1c(N)n(Cc2ccco2)c2nc3ccccc3nc12,"inconclusive: 44.7 µM [inhibitor, partial curve, poor fit]",
Cc1cnc(C2CCC2)n1C1CCNCC1,inactive,
COCC(=O)NC[C@H]1C[C@@H]2CCN1C[C@@H]2c1cc(-c2ccc(OC)cc2)nn1C,inactive,
CN(C)[C@@H]1C(=O)C(C(N)=O)=C(O)[C@@]2(O)C(=O)C3=C(O)c4c(O)cccc4[C@@](C)(O)[C@H]3[C@H](O)[C@@H]12,"inactive and inconclusive: 1.37 µM [inhibitor, full curve] and inconclusive: 10 µM [inhibitor, full curve, poor fit]",
CC(=O)OCC1=C(C(=O)[O-])N2C(=O)[C@@H](NC(=O)CCC[C@@H](N)C(=O)[O-])[C@H]2SC1.[Zn+2],"inconclusive: 35.5 µM [inhibitor, partial curve, poor fit]",
CN1C(=O)/C(=C\N2CCc3ccccc32)C(=O)NC1=S,inactive,
Cc1ccc(C2=CCN(Cc3oc(CO)cc(=O)c3O)CC2)cc1,"inconclusive: 2.24 µM [inhibitor, full curve, poor fit]",
N#C[C@H](O[C@@H]1O[C@H](CO[C@@H]2O[C@H](CO)[C@H](O)[C@H](O)[C@H]2O)[C@H](O)[C@H](O)[C@H]1O)c1ccccc1,"inconclusive: 24.3 µM [inhibitor, partial curve, poor fit]",
O=C(O)[C@@H]1CCN1,active: 25.1 µM,
C[n+]1c(-c2ccccc2)cc(CCCCc2cc(-c3ccccc3)[n+](C)c(-c3ccccc3)c2)cc1-c1ccccc1,"inconclusive: 44.7 µM [inhibitor, partial curve, poor fit]",
Nc1ccc(CCN2CCCC2)cc1,"inconclusive: 70.8 µM [inhibitor, partial curve, poor fit]",
Cc1noc(C)c1-c1cnc2[nH]cc(CC(=O)N3CCN(C)CC3)c2c1,inactive,
C[C@](N)(CCP(=O)(O)O)C(=O)O,"inconclusive: 20 µM [inhibitor, full curve, poor fit]",
CSc1nc(N)c2c(n1)OC(N)=C(C#N)C2c1ccccc1F (stereo not drawn),"inconclusive: 39.8 µM [inhibitor, partial curve, poor fit]",
C=CCN1C(=O)/C(=C\c2ccc(N3CCOCC3)o2)C(=O)NC1=S,"inconclusive: 44.7 µM [inhibitor, single point]",
Cc1ccc(CNCCc2ccc(F)cc2)s1,"inconclusive: 39.8 µM [inhibitor, partial curve, poor fit]",
CC(=O)OC1CC(OC2C(O)CC(OC3C(O)CC(OC4CCC5(C)C(CCC6C5CCC5(C)C(C7=CC(=O)OC7)C(O)CC65O)C4)OC3C)OC2C)OC(C)C1OC1OC(CO)C(O)C(O)C1O (stereo not drawn),inactive,
COC(=O)C1=C(c2ccc(F)cc2F)C[C@@H]2CC[C@H]1N2C,"inconclusive: 0.447 µM [inhibitor, full curve, poor fit]",

# Rewritten tab-delimited: part of the list above.
SMILES	Potency	activity change, negative = inhibition
CCN1C(=O)/C(=C/c2ccc3c(c2)CCN3CCCCl)C(=O)NC1=S	inconclusive: 50.1 µM [inhibitor, partial curve]	
O=C(O)[C@@H]1CCN1	active: 25.1 µM	
Cc1noc(C)c1-c1cnc2[nH]cc(CC(=O)N3CCN(C)CC3)c2c1	inactive	

# The list goes on:

SMILES,Potency,"activity change, negative = inhibition"
COC(=O)Cn1cc(/C=C2\C(=O)NC(=O)N(c3ccc(OC)cc3)C2=O)c2ccccc21,inactive,
CCn1cc(C(=O)N(C)CC(=O)NC(C)(C)C)c2ccccc21,inactive,
CC(=O)O[C@H]1C2[C@@H](OC(=O)Cc3ccccc3)[C@@H](C)C[C@]2(OC(C)=O)C(=O)/C(C)=C/[C@@H]2[C@H](CC[C@@]13CO3)C2(C)C (stereo partly drawn),"inconclusive: 14.1 µM [inhibitor, partial curve, poor fit]",
CCC(C)N1C(=O)/C(=C\c2ccc(N3CCCCCC3)cc2)C(=O)NC1=S (stereo not drawn),"inconclusive: 44.7 µM [inhibitor, partial curve, poor fit]",
COc1cccc2c1NC1(c3ccccc3)c3ccccc3-n3nncc3CN1C2=O (stereo not drawn),"inconclusive: 39.8 µM [inhibitor, partial curve, poor fit]",
CN1CC(C(=O)c2ccccc2)C(c2ccccc2)C1 (stereo not drawn),"inconclusive: 25.1 µM [inhibitor, partial curve, poor fit]",
Cc1ccc2c(c1)C(Cc1nc3ccccc3c(=O)n1-c1ccc(Br)cc1)C(=O)N2 (stereo not drawn),"inconclusive: 50.1 µM [inhibitor, partial curve, poor fit]",inconclusive: -31.1% [inhibitor]
COc1ccc(-c2cc([C@H]3CN4CC[C@H]3C[C@@H]4COC(=O)Nc3ccccc3)n(C)n2)cc1,"inconclusive: 39.8 µM [inhibitor, partial curve, poor fit]",
COc1cccc(N2C(=O)NC(=O)/C(=C\c3ccc([N+](=O)[O-])s3)C2=O)c1,active: 44.7 µM,
Nc1cc2nc3ccccc3nc2cc1N,"inconclusive: 112 µM [inhibitor, single point]",
CCCCCCCCCC(CC)c1ccc(S(=O)(=O)O)cc1 (stereo not drawn),active: 23.3 µM,
COc1ccc(NC(=O)c2sc3nc4c(cc3c2N)N2CCC4CC2)cc1OC,inactive,
C=CCCC1(CC)C(=O)NC(=S)NC1=O,"inconclusive: 39.8 µM [inhibitor, partial curve]",
CSc1cccc(NC(=O)NC[C@H]2C[C@@H]3CCN2C[C@@H]3CN2CCC(Cc3ccccc3)CC2)c1,"inconclusive: 7.94 µM [inhibitor, full curve]",
Cc1ccc(CN(CCc2ccccc2)Cc2ccccc2)o1,"inconclusive: 0.398 µM [inhibitor, full curve, poor fit]",
CCOc1ccc(N2C(=O)/C(=C/c3ccc(C)o3)C(=O)NC2=S)cc1,"inconclusive: 12.6 µM [inhibitor, partial curve, poor fit]",
O=Cc1cn(Cc2c(F)cccc2Cl)nc1-c1ccccc1,"inconclusive: 141 µM [inhibitor, single point]",
C=CCn1c(O)c(C(CC)=Nc2ccc3c(c2)CCC3)c(=O)[nH]c1=O,"inconclusive: 112 µM [inhibitor, single point]",
CNC(=O)Oc1ccccc1OC(C)C,inactive,
CCCCn1c(O)c(/C=C2/C=CC=N2)c(=O)[nH]c1=O,"inconclusive: 25.1 µM [inhibitor, partial curve]",
